According to PubChem BioAssay AID445 (National Center for Advancing Translational Sciences (NCATS), 2006):
Some of the results follow. Further columns of the screen follow, without active or inactive calls. The list favours compounds with an active or inconclusive main result. Potencies come from curve fits of mixed quality, noted in brackets.

Assay: IkB Signaling
Settings: ABC-DLBCL IkBa-CBG/CBR dual luciferase ratio (green luciferase fused to IkBa over red control in OCI-Ly3 lymphoma cells), 4 h; measured here: control luc red channel unless noted
How it was run: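 Luminescence ratio of IκBα-fused green versus native red beetle luciferase in OCI-Ly3 cells, 4 h post-doxycycline with compound; red signal alone, scaled from basal (0%) to zero light (-100%), flagged nonspecific or cytotoxic effects.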

Question: Which AC50 does the source give for `COc1cc(-c2nnc(SCC(=O)Oc3ccccc3Cl)o2)cc(OC)c1OC` here?
Answer: 39.8 µM [falling, single point]

Question: With `COc1ccc(S(=O)(=O)c2cn(Cc3ccccc3)c3ccc(OC)cc3c2=O)cc1` as the compound, how does the AC50 read?
Answer: 39.8 µM [falling, single point]

Question: With `CN(C)c1ccc(C(CNS(=O)(=O)c2ccc(F)cc2)N2CCc3ccccc32)cc1` (stereo not given) as the compound, how does the AC50 read?
Answer: 10 µM [falling, partial curve, poor fit]

Question: For `CCn1c(SCc2ccccc2Cl)nc(=O)c2c(C(=O)OC)cc(C3CC3)nc21`, which AC50 is on record?
Answer: 31.6 µM [falling, partial curve]

Question: Which AC50 does the source give for `Cc1cc(C)c2c(-n3cccc3)c(C(=O)NCCCN3CCCCC3C)sc2n1` (stereo not given) here?
Answer: 10 µM [falling, partial curve]

Question: Which AC50 does the source give for `COC(=O)Cc1c(C)nc2nc(-c3ccc(OC)cc3)[nH]n2c1=O` here?
Answer: 3.98 µM [falling, partial curve]

Question: With `Cc1ccc(S(=O)(=O)N(CC(=O)NCc2ccco2)Cc2ccccc2F)cc1` as the compound, how does the AC50 read?
Answer: 39.8 µM [falling, partial curve]

Question: For `CC(=O)Nc1nonc1-c1nnc(SCc2ccc(Cl)cc2)n1C`, which AC50 is on record?
Answer: 12.6 µM [falling, single point]

Question: For `COc1ccc2[nH]c(=O)c(CN(CC3CCCO3)C(=O)Nc3ccccc3OC)cc2c1` (stereo not given), which AC50 is on record?
Answer: 10 µM [falling, partial curve]

Question: For `Cc1ccc2[nH]c(=O)c(CN(Cc3cccs3)Cc3nnnn3Cc3ccccc3)cc2c1`, which AC50 is on record?
Answer: 3.16 µM [falling, partial curve]

Question: With `Cc1ccc(-c2noc(-c3ccc(N4CCCCC4)c([N+](=O)[O-])c3)n2)cc1` as the compound, how does the AC50 read?
Answer: 0.316 µM [rising, full curve]

Question: Which AC50 does the source give for `O=C(Nc1cc(NC(=O)c2ccccc2Cl)ccc1Cl)c1ccccc1` here?
Answer: 25.1 µM [falling, partial curve]

Question: For `CCOc1ccccc1CNC(=O)c1ccc2nc(Cc3ccc(OC)cc3)oc2c1`, which AC50 is on record?
Answer: 39.8 µM [falling, single point]

Question: With `O=C(O)CCCNc1cc(N2CCC3(CC2)OCCO3)c2noc3c2c1C(=O)c1ccccc1-3` as the compound, how does the AC50 read?
Answer: 6.31 µM [falling, partial curve]

Question: For `CCOc1ccccc1NC(=O)N1CCCC(c2nc3c(nnn3Cc3ccc(C)cc3)c(=O)[nH]2)C1` (stereo not given), which AC50 is on record?
Answer: 39.8 µM [falling, single point]

Question: Which AC50 does the source give for `Cc1ccc(OCC(=O)Nc2ccc(S(=O)(=O)Nc3ncccn3)cc2)c(C(C)(C)C)c1` here?
Answer: 39.8 µM [falling, single point]

Question: Which AC50 does the source give for `O=c1c2sc3ccccc3c2n(Cc2cccc(C(F)(F)F)c2)c(=O)n1Cc1ccco1` here?
Answer: 39.8 µM [falling, single point]

Question: Which AC50 does the source give for `Cc1cc(=O)c2cc(C(=O)Nc3ccccc3)ccc2[nH]1` here?
Answer: 39.8 µM [falling, single point]

Question: Which AC50 does the source give for `Cc1ccc2cccc(NC(=O)c3ccc(-c4ccc(Br)cc4)o3)c2n1` here?
Answer: 7.94 µM [falling, partial curve]

Question: With `Oc1ccccc1C1=Nc2ccccc2N=C(c2ccco2)C1` as the compound, how does the AC50 read?
Answer: 5.01 µM [falling, partial curve]

Question: For `NS(=O)(=O)c1ccc(CCNC(=O)c2nc(SCc3ccccc3F)ncc2Cl)cc1`, which AC50 is on record?
Answer: 1.26 µM [rising, partial curve]

Question: Which AC50 does the source give for `COc1cccc(C2C(C(=O)Nc3ccccc3OC)=C(C)Nc3nc4ccccc4n32)c1` (stereo not given) here?
Answer: 6.31 µM [falling, full curve]

Question: Which AC50 does the source give for `COc1ccccc1NC(=O)CSc1nc(N)cc(N)n1` here?
Answer: 15.8 µM [falling, partial curve]

Question: With `COc1ccccc1N1CCN(C(=O)CCS(=O)(=O)c2cc(Br)cc3c2N(C(=O)C2CC2)CC3)CC1` as the compound, how does the AC50 read?
Answer: 25.1 µM [falling, single point]

Question: For `COc1ccc2oc(=O)c(C(=O)NCCc3c(C)[nH]c4ccc(Br)cc34)cc2c1`, which AC50 is on record?
Answer: 25.1 µM [falling, single point]

Question: For `Cc1ccc(-c2csc(/C(C#N)=C/c3ccccc3Cl)n2)cc1`, which AC50 is on record?
Answer: 25.1 µM [rising, partial curve]

Question: Which AC50 does the source give for `Cc1ccc(-n2ncc3c(=O)n(CC(=O)N4CCCc5ccccc54)cnc32)cc1C` here?
Answer: 15.8 µM [falling, partial curve]

Question: Which AC50 does the source give for `COC(=O)c1ccccc1NC(=O)CNc1cc(Cl)ccc1N1CCOCC1` here?
Answer: 7.94 µM [falling, partial curve]

Question: With `O=C(NC1CC1)c1c[nH]c2ccc(S(=O)(=O)Nc3cccc(C(F)(F)F)c3)cc2c1=O` as the compound, how does the AC50 read?
Answer: 12.6 µM [falling, partial curve]

Question: For `COc1cccc(CNC(=O)CCCN2C(=O)CCn3nc(-c4cccn4C)cc32)c1`, which AC50 is on record?
Answer: 39.8 µM [falling, single point]

Question: With `CCOC(=O)c1cccc(NC(=O)Cn2c(=O)nc(-c3ccccc3F)c3cc(Cl)ccc32)c1` as the compound, how does the AC50 read?
Answer: 7.94 µM [falling, partial curve]

Question: With `CCn1c(=O)c2cc(C(=O)N(CC(C)C)CC(C)C)sc2c2ccccc21` as the compound, how does the AC50 read?
Answer: 15.8 µM [falling, partial curve]

Question: For `CC(=O)c1ccc2c(c1)Nc1ccccc1S2`, which AC50 is on record?
Answer: 0.631 µM [rising, partial curve]

Question: Which AC50 does the source give for `CCCn1c(=O)c(C(=O)Nc2ccccc2C(=O)OCC)c(O)c2ccccc21` here?
Answer: 0.158 µM [falling, full curve, poor fit]

Question: Which AC50 does the source give for `CCOC(=O)c1ccc(NC(=O)CN2c3ccccc3S(=O)(=O)c3ccccc32)cc1` here?
Answer: 39.8 µM [falling, partial curve]

Question: With `Cc1cc(C)cc(Nc2cc(C)nc3nncn23)c1` as the compound, how does the AC50 read?
Answer: 25.1 µM [falling, single point]

Question: Which AC50 does the source give for `Cc1cccc(-c2nc3scc(CCNC(=O)c4ccc(Br)o4)n3n2)c1` here?
Answer: 39.8 µM [falling, single point]

Question: With `CCOC(=O)N1CCN(c2ncc3c(n2)CC(c2ccccc2O)CC3=O)CC1` (stereo not given) as the compound, how does the AC50 read?
Answer: 25.1 µM [falling, partial curve]

Question: With `COc1ccc(CCNC(=O)CCc2c(C)nc3cc(-c4ccccc4OC)nn3c2C)c(OC)c1` as the compound, how does the AC50 read?
Answer: 0.794 µM [falling, full curve]

Question: Which AC50 does the source give for `CCc1cccc(C)c1NC(=O)c1cc(S(=O)(=O)N2CCOCC2)cn1C` here?
Answer: 0.0316 µM [rising, full curve]
